Data from ChEMBL document CHEMBL4316593 (Eur J Med Chem, 2019).
The source gives many values for each of these; only a part stands here.

Tests used:
Type in all cases: cell-based
Conditions in all cases: U-87MG ATCC
[1] = Inhibition of RTK/PI3K/AKT/mTOR signaling in human U87 cells assessed as down regulation of ANKRD50 gene expression at cytotoxic IC50 measured after 48 hrs relative to control
[2] = Inhibition of RTK/PI3K/AKT/mTOR signaling in human U87 cells assessed as up regulation of RPN1 gene expression at cytotoxic IC50 measured after 48 hrs relative to control
[3] = Inhibition of RTK/PI3K/AKT/mTOR signaling in human U87 cells assessed as up regulation of NAT9 gene expression at cytotoxic IC50 measured after 48 hrs relative to control
[4] = Inhibition of RTK/PI3K/AKT/mTOR signaling in human U87 cells assessed as up regulation of NDRG1 gene expression at cytotoxic IC50 measured after 48 hrs relative to control
[5] = Inhibition of RTK/PI3K/AKT/mTOR signaling in human U87 cells assessed as up regulation of ZNF467 gene expression at cytotoxic IC50 measured after 48 hrs relative to control
[6] = Inhibition of RTK/PI3K/AKT/mTOR signaling in human U87 cells assessed as up regulation of synaptotagmin like 1 gene expression at cytotoxic IC50 measured after 48 hrs relative to control
[7] = Inhibition of RTK/PI3K/AKT/mTOR signaling in human U87 cells assessed as down regulation of STAM2 gene expression at cytotoxic IC50 measured after 48 hrs relative to control
[8] = Inhibition of RTK/PI3K/AKT/mTOR signaling in human U87 cells assessed as up regulation of PHD finger protein 21A gene expression at cytotoxic IC50 measured after 48 hrs relative to control
[9] = Inhibition of RTK/PI3K/AKT/mTOR signaling in human U87 cells assessed as up regulation of protein disulfide isomerase family A member 6 gene expression at cytotoxic IC50 measured after 48 hrs relative to control
[10] = Inhibition of RTK/PI3K/AKT/mTOR signaling in human U87 cells assessed as down regulation of PGD gene expression at cytotoxic IC50 measured after 48 hrs relative to control
[11] = Inhibition of RTK/PI3K/AKT/mTOR signaling in human U87 cells assessed as down regulation of PTPN14 gene expression at cytotoxic IC50 measured after 48 hrs relative to control
[12] = Inhibition of RTK/PI3K/AKT/mTOR signaling in human U87 cells assessed as up regulation of DLG3 gene expression at cytotoxic IC50 measured after 48 hrs relative to control
[13] = Inhibition of RTK/PI3K/AKT/mTOR signaling in human U87 cells assessed as down regulation of FKBP3 gene expression at cytotoxic IC50 measured after 48 hrs relative to control
[14] = Inhibition of RTK/PI3K/AKT/mTOR signaling in human U87 cells assessed as down regulation of SRD5A1 gene expression at cytotoxic IC50 measured after 48 hrs relative to control
[15] = Inhibition of RTK/PI3K/AKT/mTOR signaling in human U87 cells assessed as down regulation of ABHD2 gene expression at cytotoxic IC50 measured after 48 hrs relative to control
[16] = Inhibition of RTK/PI3K/AKT/mTOR signaling in human U87 cells assessed as up regulation of epithelial membrane protein 1 gene expression at cytotoxic IC50 measured after 48 hrs relative to control
[17] = Inhibition of RTK/PI3K/AKT/mTOR signaling in human U87 cells assessed as up regulation of HK1 gene expression at cytotoxic IC50 measured after 48 hrs relative to control
[18] = Inhibition of RTK/PI3K/AKT/mTOR signaling in human U87 cells assessed as up regulation of inositol-3-phosphate synthase 1 gene expression at cytotoxic IC50 measured after 48 hrs relative to control
[19] = Inhibition of RTK/PI3K/AKT/mTOR signaling in human U87 cells assessed as down regulation of NSFL1C gene expression at cytotoxic IC50 measured after 48 hrs relative to control
[20] = Inhibition of RTK/PI3K/AKT/mTOR signaling in human U87 cells assessed as up regulation of chromosome 8 open reading frame 82 gene expression at cytotoxic IC50 measured after 48 hrs relative to control
[21] = Inhibition of RTK/PI3K/AKT/mTOR signaling in human U87 cells assessed as down regulation of CDC37L1 gene expression at cytotoxic IC50 measured after 48 hrs relative to control
[22] = Inhibition of RTK/PI3K/AKT/mTOR signaling in human U87 cells assessed as up regulation of SGTB gene expression at cytotoxic IC50 measured after 48 hrs relative to control
[23] = Inhibition of RTK/PI3K/AKT/mTOR signaling in human U87 cells assessed as up regulation of ATP binding cassette subfamily G member 1 gene expression at cytotoxic IC50 measured after 48 hrs relative to control
[24] = Inhibition of RTK/PI3K/AKT/mTOR signaling in human U87 cells assessed as down regulation of UNC13B gene expression at cytotoxic IC50 measured after 48 hrs relative to control
[25] = Inhibition of RTK/PI3K/AKT/mTOR signaling in human U87 cells assessed as up regulation of semaphorin 4C gene expression at cytotoxic IC50 measured after 48 hrs relative to control
[26] = Inhibition of RTK/PI3K/AKT/mTOR signaling in human U87 cells assessed as up regulation of cAMP responsive element binding protein 5 gene expression at cytotoxic IC50 measured after 48 hrs relative to control
[27] = Inhibition of RTK/PI3K/AKT/mTOR signaling in human U87 cells assessed as up regulation of fucosyltransferase 1 (H blood group) gene expression at cytotoxic IC50 measured after 48 hrs relative to control
[28] = Inhibition of RTK/PI3K/AKT/mTOR signaling in human U87 cells assessed as down regulation of MSX2 gene expression at cytotoxic IC50 measured after 48 hrs relative to control
[29] = Inhibition of RTK/PI3K/AKT/mTOR signaling in human U87 cells assessed as down regulation of AMOTL2 gene expression at cytotoxic IC50 measured after 48 hrs relative to control
[30] = Inhibition of RTK/PI3K/AKT/mTOR signaling in human U87 cells assessed as up regulation of aldehyde dehydrogenase 3 family member B1 gene expression at cytotoxic IC50 measured after 48 hrs relative to control
[31] = Inhibition of RTK/PI3K/AKT/mTOR signaling in human U87 cells assessed as down regulation of PACS1 gene expression at cytotoxic IC50 measured after 48 hrs relative to control
[32] = Inhibition of RTK/PI3K/AKT/mTOR signaling in human U87 cells assessed as down regulation of PCDH19 gene expression at cytotoxic IC50 measured after 48 hrs relative to control

Work on `CC(=O)C(=NNc1ccccc1C#N)C(C)=O` yielded a log2FC [1] of -1.1, a log2FC [2] of 0.492 and a log2FC [3] of 0.624. It also gave a log2FC [4] of 2, a log2FC [5] of 2.59 and a log2FC [6] of 0.945. For the same compound, the log2FC [7] was -0.856, the log2FC [8] was 0.756 and the log2FC [9] was 1.12. It also gave a log2FC [10] of -0.625, a log2FC [11] of -0.791 and a log2FC [12] of 0.51. The log2FC [13] was -1.28, the log2FC [14] was -0.871 and the log2FC [15] was -0.937. The log2FC [16] was 1.52, the log2FC [17] was 0.635 and the log2FC [18] was 1.32. For the same compound, the log2FC [19] was -0.732, the log2FC [20] was 1.03 and the log2FC [21] was -0.871. It also gave a log2FC [22] of 0.596, a log2FC [23] of 1.47 and a log2FC [24] of -0.861. It also gave a log2FC [25] of 1.1, a log2FC [26] of 1.05 and a log2FC [27] of 1.03. It also gave a log2FC [28] of -1.75, a log2FC [29] of -1.34 and a log2FC [30] of 0.946. For the same compound, the log2FC [31] was -0.442 and the log2FC [32] was -2.32.
